Test results taken from patent US20220257552A1, “METHODS OF PRESCREENING AND TREATING BREAST CANCERS WITH SELECTIVE ANDROGEN RECEPTOR MODULATORS” (priority 2021, published 2022).
For at least one compound, name, drawing or mass did not settle the structure.

Tested on: MDA-MB-231 breast cancer cells stably transfected with AR
Assay: Proliferation of MDA-MB-231 cells stably transfected with AR (Coulter counter)
Assay type: cell-based
Conditions: 6 days, cell count
Experimental: MDA-MB-231 cells stably transfected with AR using lentivirus were treated with the indicated ligands for 6 days and the number of cells counted using Coulter counter.

CC(O)(CS(=O)(=O)c1ccc(F)cc1)C(=O)Nc1ccc(C#N)c(C(F)(F)F)c1 (stereo not shown) [bicalutamide, reference compound]
proliferation: not
